From patent US8318664B2, “Unacylated ghrelin fragments as therapeutic agent in the treatment of obesity” (Alize Pharma SAS, priority 2007, dated 2012) come the findings set out here.

The test system of this data set is C57BL/6J male mice on high fat diet. The data set can be described thus: High fat diet (HFD) pre-diabetic/onset obesity model in C57BL/6J mice. It counts as in vivo, mouse. To be noted: 4 nmol/kg/hr. As to the method: In order to assess the effects of UAG and cyclic UAG (6-13) on the metabolic responses to a high fat diet, ten (10) week old C57BL/6J male mice were allowed to acclimatize in the animal facility for 1 week. The mice were fed a standard chow (also referred herein as “normal diet” or “ND”, 9% kcal fat) and were maintained in 12 hour:12 hour light:dark conditions at 21° C. (FIG. 17). […]
Body weight and 24 h food intake were measured weekly for 4 weeks and IPGTTs were performed bi-weekly for 4 weeks. […]
GTTs were performed following a 6 h fast starting at 8 am, then ˜100 μl of blood was collected from the tail vein (t=0) for measurement of insulin under fasting conditions (no anesthesia). […] Glucose was then measured using a glucometer using ˜0.5 μl of tail vein blood at t=0, 15, 30, 45, 60 and 120 minutes. […]
The day after the final IPGTT, mice were fasted for 4 h starting at 8 am, then injected with human insulin (Actrapid, Novo Nordisk) at 0.5 IU/kg. Glucose in tail vein blood (˜0.5 μl) was measured with a glucometer at t=0, 15, 30, 45, 60 and 120 minutes (no anesthesia).
Tail vein blood glucose was measured by glucometer biweekly from free-fed mice in the non-IPGTT experimental streams (no anesthesia).

No end group written: not given here.

For the sequence “SPEHQRVQ (also: cyclic (positions not given here)) [cyclic UAG (6-13)]”, the “24 h food intake” value is listed as “independent of food consumption”.
